The target in experiment [1] is Uba1 (endogenous) (S. cerevisiae (endogenous in yeast cells)) (UniProt P22515). In words: immunoblot of a DTT-reducible high molecular weight. Background: Immunoblotting shows a protein as a band on a membrane.
For experiment [2], the target named is Uba1-myc (S. cerevisiae) (UniProt P22515). The description is as above.
The target is the same in experiment [3]. Put plainly: co-IP.
Another experiment has as its target Rad6-HA (S. cerevisiae) (UniProt P06104). Put plainly: immunoblot of a DTT-reducible high molecular weight.
For experiment [4], the target named is Rad6-FLAG (S. cerevisiae) (UniProt P06104). In words: co-IP.

Amino acid sequences for entries named in this document (tags omitted). A change or cut given only in a name is not applied to a line headed by its entry.
UniProt P22515, whole entry: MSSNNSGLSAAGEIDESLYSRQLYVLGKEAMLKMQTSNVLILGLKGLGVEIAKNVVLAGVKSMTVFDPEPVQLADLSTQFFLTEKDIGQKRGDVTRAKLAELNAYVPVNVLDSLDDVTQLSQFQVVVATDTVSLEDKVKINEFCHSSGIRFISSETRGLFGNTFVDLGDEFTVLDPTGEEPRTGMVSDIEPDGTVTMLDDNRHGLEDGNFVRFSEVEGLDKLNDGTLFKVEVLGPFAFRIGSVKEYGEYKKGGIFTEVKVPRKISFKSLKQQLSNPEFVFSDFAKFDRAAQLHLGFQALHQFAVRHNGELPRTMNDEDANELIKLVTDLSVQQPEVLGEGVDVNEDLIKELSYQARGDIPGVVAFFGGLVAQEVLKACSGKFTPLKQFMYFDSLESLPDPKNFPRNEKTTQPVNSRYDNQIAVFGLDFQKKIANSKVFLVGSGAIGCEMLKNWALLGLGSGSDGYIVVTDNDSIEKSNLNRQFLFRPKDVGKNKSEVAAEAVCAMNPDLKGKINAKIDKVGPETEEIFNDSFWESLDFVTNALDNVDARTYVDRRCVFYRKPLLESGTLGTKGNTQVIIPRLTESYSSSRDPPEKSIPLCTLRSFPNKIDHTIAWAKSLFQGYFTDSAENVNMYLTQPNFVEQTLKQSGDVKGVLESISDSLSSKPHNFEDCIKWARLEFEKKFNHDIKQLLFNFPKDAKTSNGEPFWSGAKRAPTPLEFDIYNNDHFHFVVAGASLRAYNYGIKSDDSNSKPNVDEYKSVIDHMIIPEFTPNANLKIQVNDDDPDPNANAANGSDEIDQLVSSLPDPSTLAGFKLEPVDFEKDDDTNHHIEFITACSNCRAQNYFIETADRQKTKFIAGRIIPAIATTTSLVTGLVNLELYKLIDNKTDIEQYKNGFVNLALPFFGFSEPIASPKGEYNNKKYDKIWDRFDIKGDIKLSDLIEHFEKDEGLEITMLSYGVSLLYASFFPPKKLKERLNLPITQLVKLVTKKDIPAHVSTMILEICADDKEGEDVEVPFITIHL

Results are given in words; binding and its absence hold for the method and conditions named. For part of these data: Binding seen in cells or lysates may run through a third protein. Some entries that bind do so weakly or less than the wild type.

On to “Rad6 (endogenous, untagged) (from UniProt P06104 1-172) (enzyme)”, for which, in experiment [1], the binding entry is recorded as “binds”.
As for “Rad6-HA (from UniProt P06104 1-172) (enzyme)”, the binding result in the experiment with Uba1-myc (S. cerevisiae) [2] is recorded as “binds”.
Regarding “Rad6^C88S-HA (from UniProt P06104 1-172) (enzyme)”, the binding result with Uba1-myc (S. cerevisiae) [3] and with Uba1-myc (S. cerevisiae) [2] was “no binding” throughout.
Consider “Rad6^R7A (from UniProt P06104 1-172) (enzyme)”, for which, in experiment [1], the binding result was “binds”.
On to “Rad6^R7A/R11A (from UniProt P06104 1-172) (enzyme)”, for which the binding result in experiment [1] is on record as “binds”.
For “Rad6^R11A (from UniProt P06104 1-172) (enzyme)”, in experiment [1], the binding result is “binds”.
As for “Uba1 (endogenous) (from UniProt P22515 1-1024) (enzyme)”, the binding result with Rad6-HA (S. cerevisiae) was “binds”.

B1: ribosomal protein uS3 (protein, UniProt P05750 1-240)
chain: MVALISKKRKLVADGVFYAELNEFFTRELAEEGYSGVEVRVTPTKTEVIIRATRTQDVLGENGRRINELTLLVQKRFKYAPGTIVLYAERVQDRGLSAVAQAESMKFKLLNGLAIRRAAYGVVRYVMESGAKGCEVVVSGKLRAARAKAMKFADGFLIHSGQPVNDFIDTATRHVLMRQGVLGIKVKIMRDPAKSRTGPKALPDAVTIIEPKEEEPILAPSVKDYRPAEETEAQAEPVEA
On to B1, for which, in experiment [4], the binding result was “binds”.

These data come from paper doi:10.1101/2021.04.22.439970.
